In patent US8232240B2, “Inhibitors of enveloped virus infectivity” (priority 2005, dated 2012):
Some entries share one result that the patent states for a list of compounds. For at least one compound, name, drawing or mass did not settle the structure.

Tested on: EboV-Zaire (1995 strain)
Format: cell-based
Details: after 96 h

CCCNC(=O)[C@H]1O[C@@H]1C(=O)N[C@H](C(=O)N1CCC[C@H]1C(=O)O)[C@@H](C)CC [CA074]
reduction of growth yields of infectious EboV: greater than 90%
